Laboratory results: PubChem BioAssay AID504834 (National Center for Advancing Translational Sciences (NCATS), 2011)
About 22,000 (6.9%) of roughly 320,000 compounds were called active. Inconclusive means that the source gave no clear call. Such entries were picked first, then a sample of the others. Calls follow the shape of the dose curve; as a rule, active = well fitted inhibition curve with a large enough effect; inconclusive = small, poorly fitted or top-dose-only effect, or another doubt; inactive = no such curve, though single readings can be large or run the other way. Potencies of inconclusive entries are doubtful fits and often do not repeat.

Assay: Primary qHTS for delayed death inhibitors of the malarial parasite plastid, 96 hour incubation
Details: P. falciparum luciferase reporter growth; series mostly up to 28.7 µM; activity change, negative = inhibition: at the top concentration
Method in brief: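 Parasite growth measured via integrated firefly luciferase reporter in P. falciparum. Infected erythrocytes at 2% hematocrit, 0.05% parasitemia final were treated 96 hours at 37 C under 5% CO2, and luminescence was read.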
% is scaled to controls: 0 for no effect and ±100 for the full control effect; potency is read from the fitted curve at half-maximal effect.

Structure (SMILES) | Potency | activity change, negative = inhibition
CC(=O)NC1C(=O)N(CCN2CCOCC2)c2ccc(Cl)cc21 (configuration not stated) | inconclusive: 14.7 µM [inhibitor, partial curve, poor fit] | –
COc1ccc(/C=N/NC(=O)c2nc(Cl)c(Cl)c(N)c2Cl)cc1COc1ccccc1F | inconclusive: 10.4 µM [inhibitor, partial curve, poor fit] | –
COC(=O)c1cn(NC(=O)Cc2ccc(Cl)cc2)c(=O)c2ccccc12 | inconclusive: 9.28 µM [inhibitor, partial curve] | –
Cc1cc(C)c(S(=O)(=O)/N=C2\C=CC(=O)C(Cl)=C2)c(C)c1 | inconclusive: 10.4 µM [inhibitor, single point] | –
COc1ccc(N(CC(=O)N2CCN(c3ccccc3F)CC2)S(=O)(=O)c2c(C)n[nH]c2C)cc1 | inconclusive: 9.28 µM [inhibitor, single point] | –
C/C(=N\NC(=O)c1cccc(C)c1)c1cccc(NC(=O)c2ccco2)c1 | – | inactive: 0%
O=c1c2c3c(sc2nc2n1CCC2)CCCCC3 | – | inactive: 50.7%
COc1ccccc1NS(=O)(=O)c1cccc(NC(=O)Nc2ccc(Cl)cc2)c1 | active: 10.4 µM | –
CCOc1ccc(CN(C)C(=O)c2ccc(NC(=O)CC3SC(N4CCCC4)=NC3=O)cc2)cc1 (configuration not stated) | inconclusive: 5.22 µM [inhibitor, partial curve] | –
O=C(COc1ccc(Cl)cc1)N1CCN(S(=O)(=O)c2ccc(Cl)cc2)CC1 | inconclusive: 5.86 µM [inhibitor, partial curve, poor fit] | –
CN(CCOc1ccc(Cl)cc1)C(=O)CNS(=O)(=O)c1ccc(N(C)C)c([N+](=O)[O-])c1 | inconclusive: 1.04 µM [inhibitor, full curve, poor fit] | –
Cc1cccc(Cn2c(=O)c3c(nc4n3CCN4Cc3ccco3)n(C)c2=O)c1 | active: 5.86 µM | –
COc1ccccc1C(=O)Nc1ccnn1C1CCN(Cc2cc(C)c(C)cc2C)CC1 | inconclusive: 2.62 µM [inhibitor, full curve] | –
CC(=O)c1cccc(NC(=O)COc2ccc(S(=O)(=O)N3CCOCC3)cc2)c1 | inconclusive: 10.4 µM [inhibitor, partial curve] | –
O=C(Nc1ccc(F)cc1F)c1cc(-c2ccco2)on1 | – | inactive: 1.8%
O=C(Nc1ccc(N2CCOCC2)c(Cl)c1)c1ccccc1Cl | inconclusive: 14.7 µM [inhibitor, single point] | –
CCOC(=O)c1c(NC(=O)CSc2nnc(C)s2)sc2c1CCN(C)C2 | inconclusive: 18.5 µM [inhibitor, single point] | –
Cc1cccc(C)c1NC(=O)c1cnccn1 | inconclusive: 18.5 µM [inhibitor, partial curve, poor fit] | –
COC(=O)c1c(NC(=O)CSc2nnnn2-c2ccc3c(c2)OCO3)sc(C)c1C | inconclusive: 11.7 µM [inhibitor, single point] | –
Cc1sc2ncnc(N(C)C3CCCCC3)c2c1C | – | inactive: 0%
O=C(Nc1ccc(Cl)cc1Cl)C1CCC(=O)N1Cc1ccccc1Cl (configuration not stated) | active: 8.28 µM | –
O=C1CSC(c2cccc([N+](=O)[O-])c2)N1c1ccc(O)cc1 (configuration not stated) | – | inactive: 199%
CC[n+]1c(/C=C/Nc2ccccc2)sc2ccccc21 | – | inactive: -84.6%
Nc1[nH]ncc1C(=O)Nc1cccc(C(F)(F)F)c1 | inconclusive: 18.5 µM [inhibitor, single point] | –

Structure (SMILES) | Potency | activity change, negative = inhibition
COc1cnc(N(C)C)nc1Sc1cccc(Cl)c1 | inconclusive: 8.28 µM [inhibitor, single point] | –
COc1ccc(CC(=O)Nc2ccccc2C(C)=O)cc1S(=O)(=O)N1CCOCC1 | inconclusive: 18.5 µM [inhibitor, single point] | –
CCOC(=O)c1cc(CC)sc1NC(=O)c1ccc(N2C(=O)CCC2=O)cc1 | inconclusive: 18.5 µM [inhibitor, single point] | –
O=C(NNc1ccc(O)cc1)c1ccc(Br)cc1 | – | inactive: 153%
Cc1cc(-c2nnc(SCC(=O)Nc3ccc(C)c(C)c3)n2N)n[nH]1 | inconclusive: 10.4 µM [inhibitor, partial curve] | –
COc1ccc(Cn2nnnc2C(c2cccs2)N2CCCCCC2)cc1 (configuration not stated) | inconclusive: 16.5 µM [inhibitor, partial curve, poor fit] | –
O=C(CN(Cc1ccco1)Cc1ccco1)Nc1cc(S(=O)(=O)N2CCCCC2)ccc1Cl | inconclusive: 18.5 µM [inhibitor, single point] | –
CNC(=S)NNC(=O)c1ccccc1F | – | inactive: 21.1%
CN(C)c1nc(/C=C(\C#N)C(N)=O)c(Cl)n1-c1ccc(F)cc1 | – | inactive: -19.5%
Cn1nnc(NC(=S)NC(=O)c2ccc(-c3ccc(Br)cc3)o2)n1 | inconclusive: 5.22 µM [inhibitor, partial curve] | –
CC(=O)Nc1ccc(OC(=O)c2cc3ccccc3oc2=O)cc1 | active: 11.7 µM | –
COc1ccc(C(CCNCc2ccc(N(C)C)cc2)c2ccccc2)cc1 (configuration not stated) | inconclusive: 16.5 µM [inhibitor, single point] | –
O=C(Nc1ccc2nc(-c3cccnc3)[nH]c2c1)c1ccccc1F | – | inactive: 60.9%
CCOC(=O)[C@@H]1[C@H]2COc3cc(OC)ccc3[C@H]2N2C(=O)N(c3cccc(Cl)c3)C(=O)[C@]12C | inconclusive: 2.62 µM [inhibitor, full curve, poor fit] | –
CCc1cccc(C)c1NC(=S)NCc1ccc2[nH]c(C)cc2c1 | active: 10.4 µM | –
CCOC(=O)C1=C(COC(=O)CCS(=O)(=O)c2ccc(C)cc2)NC(=O)NC1C (configuration not stated) | inconclusive: 0.828 µM [inhibitor, full curve, poor fit] | –
CC(C)OC(=O)CSc1nnc(-c2cnccn2)n1C | active: 10.4 µM | –
C=CCN1C(=O)C(C)NC1=S (configuration not stated) | – | inactive: 6.33%
OC12CC3C[C@H](C1)C(N1CCOCC1)[C@@H](C3)C2 (some centres not stated) | inconclusive: 18.5 µM [inhibitor, single point] | –
O=C1c2ccccc2C(=O)c2c1oc(C(F)(F)F)c2C(=O)c1ccccc1 | active: 0.131 µM | –
CC1CN(S(=O)(=O)c2cc(C(=O)NCCC3=CCCCC3)ccc2Cl)CC(C)O1 (configuration not stated) | inconclusive: 7.38 µM [inhibitor, partial curve, poor fit] | –
COc1ccccc1NC(=O)C1=C(C)NC(=O)NC1c1ccccc1[N+](=O)[O-] (configuration not stated) | inconclusive: 18.5 µM [inhibitor, single point] | –
O=c1[nH]c(=S)n(-c2ccccc2F)c(O)c1C=Nc1ccc(N2CCOCC2)cc1 | inconclusive: 11.7 µM [inhibitor, partial curve] | –
O=C(NC1CC1)C1CCN(S(=O)(=O)c2cc([N+](=O)[O-])ccc2Cl)CC1 | inconclusive: 8.28 µM [inhibitor, partial curve] | –

Structural class: the compounds so far with an aryl thioether with sulfur outside any ring
Structure (SMILES) | Potency | activity change, negative = inhibition
CCOC(=O)c1c(NC(=O)CSc2nnc(C)s2)sc2c1CCN(C)C2 | inconclusive: 18.5 µM [inhibitor, single point] | –
COC(=O)c1c(NC(=O)CSc2nnnn2-c2ccc3c(c2)OCO3)sc(C)c1C | inconclusive: 11.7 µM [inhibitor, single point] | –
COc1cnc(N(C)C)nc1Sc1cccc(Cl)c1 | inconclusive: 8.28 µM [inhibitor, single point] | –
Cc1cc(-c2nnc(SCC(=O)Nc3ccc(C)c(C)c3)n2N)n[nH]1 | inconclusive: 10.4 µM [inhibitor, partial curve] | –
CC(C)OC(=O)CSc1nnc(-c2cnccn2)n1C | active: 10.4 µM | –

Additional compounds:

Structure (SMILES) | Potency | activity change, negative = inhibition
O=C(NCCN1CCN(C(=O)c2cccc(Br)c2)CC1)C(=O)NCc1ccccc1 | inconclusive: 20.8 µM [inhibitor, single point] | –
COc1cc(CN2CCCC(CO)(Cc3cccc(Cl)c3)C2)cc(OC)c1O (configuration not stated) | inconclusive: 2.33 µM [inhibitor, full curve] | –
O=C(N1CCCCC1)N1CCN(c2ccc(Cl)cc2)CC1 | inconclusive: 18.5 µM [inhibitor, single point] | –
CCOC(=O)c1c(N)sc(C(=O)N2CCCCCC2)c1C | – | inactive: 21.8%
Cc1cn(C2OC(COC(=O)c3ccccc3)C(O)C2Cl)c(=O)[nH]c1=O (configuration not stated) | – | inactive: 9.86%
CC(C)(C)CN1CCNC(=O)C1CC(=O)N1CCOc2ccccc2C1 (configuration not stated) | inconclusive: 18.5 µM [inhibitor, single point] | –
CCCNC(=S)Nc1ccc(Oc2ccccc2)cc1 | – | inactive: -27.9%
CC(=O)/C(N=Nc1ccc(C(=O)O)cc1[N+](=O)[O-])=C(\C)O | – | inactive: 132%
COc1cc(C(=O)N/N=C/C2CC=CCC2)cc(OC)c1OC (configuration not stated) | – | inactive: 27.4%
CC(C)C[C@@H]1NC(=O)[C@H](Cc2ccc(O)cc2)NC(=O)c2cc([N+](=O)[O-])cc(I)c2NCCC[C@@H](C(N)=O)NC1=O | active: 10.4 µM | –
CC(=O)Nc1ccc(S(=O)(=O)Nc2nc3c(s2)CCCC3)cc1 | – | inactive: 4.77%
O=C(COc1ccccc1F)Nc1cc(S(=O)(=O)N2CCOCC2)ccc1N1CCOCC1 | inconclusive: 13.1 µM [inhibitor, single point] | –
Cc1cc(OC(=O)C(C)(C)C)c([N+](=O)[O-])c(=O)[nH]1 | – | inactive: 3.67%
CCOC(=O)C1=NN(C(C)=O)C2(CC(=O)N(c3cc(C)cc(C)c3)C2=O)C1 (configuration not stated) | – | inactive: 16.6%
O=C(CC1SC(=Nc2ccccc2)N(Cc2ccccn2)C1=O)Nc1cccc(Cl)c1 (configuration not stated) | inconclusive: 10.4 µM [inhibitor, single point] | –
Cc1csc(NC(=O)C2=NN(c3ccccc3)C(=O)CC2)n1 | inconclusive: 2.94 µM [inhibitor, partial curve, poor fit] | –
CCOC(=O)N1CCC(NC(=O)c2ccc3c(c2)N=C(C)c2ccccc2S3)CC1 | inconclusive: 6.57 µM [inhibitor, partial curve, poor fit] | –
Cc1cc(N2CCN(C)CC2)n2cc(-c3ccc(F)cc3)nc2n1 | – | inactive: -3.54%
COc1ccc(C)cc1NC(=O)C(c1ccccc1)N1CCN(CC(=O)N2CCCC2)CC1 (configuration not stated) | active: 11.7 µM | –
C=CCOc1ccccc1CNc1cccc(F)c1 | active: 10.4 µM | –
C#CCOc1ccccc1/C=N/NC(=O)c1ccccc1OCc1ccccc1 | active: 10.4 µM | –
CCCCn1nnnc1NCc1cc(OC)c(OC)cc1OC | inconclusive: 13.1 µM [inhibitor, single point] | –
O=C(Nc1ccc(C(=O)N2CCN(c3ccccc3)CC2)cc1)C1=CSCCO1 | – | inactive: -1.69%
Cc1ccc(OCC(=O)NNC(=O)c2ccc3c(=O)n4c(nc3c2)CCC4)cc1 | – | inactive: -2.25%
